Assay results as given in article PMC7819943, “Rice protein-binding microarrays: a tool to detect cis-acting elements near promoter regions in rice”.
This is one part of the list.

Chains of the proteins cited; added tags and fusions are not shown.
UniProt Q0JBA9, entry or part of it: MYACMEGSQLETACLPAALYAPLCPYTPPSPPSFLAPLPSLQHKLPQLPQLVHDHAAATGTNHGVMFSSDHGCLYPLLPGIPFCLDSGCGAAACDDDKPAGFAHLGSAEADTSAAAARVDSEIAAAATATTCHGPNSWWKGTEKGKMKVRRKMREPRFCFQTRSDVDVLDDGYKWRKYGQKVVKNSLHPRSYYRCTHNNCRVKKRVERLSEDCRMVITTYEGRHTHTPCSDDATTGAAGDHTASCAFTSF

The sequences below were run against OsWRKY34 (Oryza sativa, UniProt Q0JBA9 1-250) (assay: protein-binding microarray (RPBM); PBS, 2% BSA, 51.3 ng/ul salmon testes DNA, 50 uM zinc acetate, 200 nM TF, 25 C, 1 h; high values mean tight binding). Conditions: protein: recombinant; tags: N-terminal polyhistidine and DsRed monomer fusion (pET32a); label: CyDye5-dUTP incorporated in the synthesized complementary strand; 3' TTTTT single-stranded linker to array surface; dsDNA, one strand shown.
Summary of the method: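 The binding signal is fluorescence intensity per array feature (arbitrary units). Readings came from an Axon 4000B scanner after a washed, 2% BSA-blocked, double-stranded custom Agilent array had been incubated for 1 h at 25 °C with 200 nM protein and 50 µM zinc acetate. The protein was a Ni–NTA-purified transcription factor fused N-terminally to polyhistidine and DsRed, expressed in E. coli BL21-CodonPlus.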

How did the binding signal turn out when “ACCTCACCGCCATTACTAGCAAAGCCCGCGACAAAACGACCGGAGTCACCTAGTGCAG” was run?
Its binding signal is 8020 fluorescence intensity (a.u.).

How did the binding signal turn out when “GTTTCTTTCCTACGTACTTCTCGCATTCCTAATTTTAGCCCGGAGTCACCTAGTGCAG” was run?
The binding signal was 15700 fluorescence intensity (a.u.).

“AATCTGGTCGAATGTTTTTACTGTTTTAATTTTGAATTCCCGGAGTCACCTAGTGCAG” was tested. Which binding signal did it give?
The binding signal was 9950 fluorescence intensity (a.u.).

Which binding signal does the source give for “TTCAGTGCCCTTTAATTAGTTCACACGCTCACGTCTCAAACGGAGTCACCTAGTGCAG” here?
The binding signal was 10600 fluorescence intensity (a.u.).

“GTTTCTCTGGCCATTTGATTCACCTACTCCTGATTCCAGTCGGAGTCACCTAGTGCAG” was tested. Which binding signal did it give?
Its binding signal is 9080 fluorescence intensity (a.u.).

For “ATGTCATGTGCTAACAGTGTGCTAGTTCGTTCGTTTCTTTCGGAGTCACCTAGTGCAG”, which binding signal is on record?
Its binding signal is 9940 fluorescence intensity (a.u.).

Which binding signal does the source give for “GATTCAGGCCATTTTCAGCGCCTCTAGATCCTCTATGGTACGGAGTCACCTAGTGCAG” here?
Its binding signal is 8840 fluorescence intensity (a.u.).

“TTACCTAGTTCTACCTCTAGCTATTCAGATAATTTTCCTTCGGAGTCACCTAGTGCAG” was tested. Which binding signal did it give?
The binding signal was 9300 fluorescence intensity (a.u.).

Which binding signal does the source give for “CCCTATGTTCATATTCCTTTTGACTTTTACTCTATTCAAACGGAGTCACCTAGTGCAG” here?
The binding signal was 13000 fluorescence intensity (a.u.).

Which binding signal does the source give for “CCACCTCTTTATGGTCAAAGATTCACCGATTTCTATTTTCCGGAGTCACCTAGTGCAG” here?
The binding signal was 8140 fluorescence intensity (a.u.).

“ACCACCAAGCTGACTCCCGGTCCATCACCGCAATACTCTCCGGAGTCACCTAGTGCAG” was tested. Which binding signal did it give?
Its binding signal is 8050 fluorescence intensity (a.u.).

For “TGGGGTTTAAAGTTTCACTTTCTGGACTGTGTGTTCTTCTCGGAGTCACCTAGTGCAG”, which binding signal is on record?
Its binding signal is 13000 fluorescence intensity (a.u.).

With “GCTAGCTCGCGCCGCCGCCGCCGCCGTCGCCGCCGCCATGCGGAGTCACCTAGTGCAG” as the sequence, how does the binding signal read?
Its binding signal is 8360 fluorescence intensity (a.u.).

With “TCACTACTATCTACTACCTAGCTAGTCGCAGTTTAATTTACGGAGTCACCTAGTGCAG” as the sequence, how does the binding signal read?
The binding signal was 8970 fluorescence intensity (a.u.).

“TCTATCATCCAATTCATACGTTTTATCTGTGGCTAATCGACGGAGTCACCTAGTGCAG” was tested. Which binding signal did it give?
The binding signal was 10500 fluorescence intensity (a.u.).

Which binding signal does the source give for “GTCATTTATTTTTACCAACGTTTGACTATTCGTCTTATTTCGGAGTCACCTAGTGCAG” here?
Its binding signal is 9430 fluorescence intensity (a.u.).

With “AGTCATATGTTTGCTCTCTCTTAATATCAATATAATACTACGGAGTCACCTAGTGCAG” as the sequence, how does the binding signal read?
Its binding signal is 9670 fluorescence intensity (a.u.).

“ACATGGAAATTGAGCCTAATGGCTATCGTATACACTTGCACGGAGTCACCTAGTGCAG” was tested. Which binding signal did it give?
Its binding signal is 8750 fluorescence intensity (a.u.).

For “ACGGCCAATCTCTGCCCCTTGCTACCTCCCGCGGCGCCGCCGGAGTCACCTAGTGCAG”, which binding signal is on record?
Its binding signal is 8680 fluorescence intensity (a.u.).

How did the binding signal turn out when “AGCTAGGTGATATTATATTGTTTTGTTGCCTACATAAATCCGGAGTCACCTAGTGCAG” was run?
The binding signal was 8520 fluorescence intensity (a.u.).

Which binding signal does the source give for “TTTTTTTTCTCCTACTTTCGGTACGTCTTTTTCCCAACCACGGAGTCACCTAGTGCAG” here?
Its binding signal is 8420 fluorescence intensity (a.u.).

“CTAGGTGGATAAGGAGTGGTGGGTGGTGATTTTTTAATGGCGGAGTCACCTAGTGCAG” was tested. Which binding signal did it give?
Its binding signal is 15000 fluorescence intensity (a.u.).

Which binding signal does the source give for “GGGTTCTTATATGGTTTTTCTTTAAATATTGCTTCTTTTTCGGAGTCACCTAGTGCAG” here?
Its binding signal is 8940 fluorescence intensity (a.u.).

Which binding signal does the source give for “ACATGCTGGCATTTTGTAAGGTACTGTTTTTATGCTCTTGCGGAGTCACCTAGTGCAG” here?
The binding signal was 8160 fluorescence intensity (a.u.).

How did the binding signal turn out when “ACTCGGCATATGATTCATACCCTTTTTTTTTCTATTTCTACGGAGTCACCTAGTGCAG” was run?
The binding signal was 9370 fluorescence intensity (a.u.).

For “GTTCCTATTTCTTCAGTAACTATGTTCCTTTTATCTAAGTCGGAGTCACCTAGTGCAG”, which binding signal is on record?
The binding signal was 11300 fluorescence intensity (a.u.).

How did the binding signal turn out when “GCTGCCTAGCTACAAAGTAGGAAACATGGTTGGTTTTGTCCGGAGTCACCTAGTGCAG” was run?
The binding signal was 8320 fluorescence intensity (a.u.).

With “CCTTGCGTCTCTTTGTTTCATTGCGTGCTGTTCATCTTCTCGGAGTCACCTAGTGCAG” as the sequence, how does the binding signal read?
Its binding signal is 11500 fluorescence intensity (a.u.).

Which binding signal does the source give for “TCTCCCCGTCACGGGCCCGGCCACCACCGGCCGCTTCTCCCGGAGTCACCTAGTGCAG” here?
Its binding signal is 8300 fluorescence intensity (a.u.).

For “GGGACTGAGCTACTAAGTGATCGTGGTTTTTTTTTCACTCCGGAGTCACCTAGTGCAG”, which binding signal is on record?
The binding signal was 11200 fluorescence intensity (a.u.).

For “GCGCCGCGCCACCGCCGCTCGTCTCCCATGTCTGTGTATACGGAGTCACCTAGTGCAG”, which binding signal is on record?
Its binding signal is 10000 fluorescence intensity (a.u.).

Which binding signal does the source give for “ATTATCCGACCATATCCACTCTGTTTTTATTCCTAATCATCGGAGTCACCTAGTGCAG” here?
The binding signal was 9880 fluorescence intensity (a.u.).

Which binding signal does the source give for “GCCCATTTACCCACAACATTCTATTGAATGCATATTTCTCCGGAGTCACCTAGTGCAG” here?
The binding signal was 9470 fluorescence intensity (a.u.).

For “CTTTGCACTTAAAGCTTTATTTTAGTTCTGAAATCCCAATCGGAGTCACCTAGTGCAG”, which binding signal is on record?
The binding signal was 8260 fluorescence intensity (a.u.).

“TCGATTTTTAAGCACCACCTCACCTCATTACCCGCGCTTTCGGAGTCACCTAGTGCAG” was tested. Which binding signal did it give?
Its binding signal is 10400 fluorescence intensity (a.u.).

Which binding signal does the source give for “ATACCAGGATCTTTTCTCCTGTCGTTACATTTTGCTTAATCGGAGTCACCTAGTGCAG” here?
Its binding signal is 8680 fluorescence intensity (a.u.).

With “TCGATTCATCCGATCCGACTCCGACCTAACCAATCCAATGCGGAGTCACCTAGTGCAG” as the sequence, how does the binding signal read?
Its binding signal is 8520 fluorescence intensity (a.u.).

For “TAGGTAGGGTGGTGGCGGGCGGGCTCCCGCAGCCAGTGGCCGGAGTCACCTAGTGCAG”, which binding signal is on record?
Its binding signal is 11100 fluorescence intensity (a.u.).

Which binding signal does the source give for “TCCGCTATACAAAAATTCTTGCGCTTCGCCACGTCAGCATCGGAGTCACCTAGTGCAG” here?
The binding signal was 8310 fluorescence intensity (a.u.).

With “ACCTGTTCGATGTGCTTGACCGTTTCAACGCCTAGGCCCACGGAGTCACCTAGTGCAG” as the sequence, how does the binding signal read?
The binding signal was 8240 fluorescence intensity (a.u.).

“AGGAAGGGAGGGTAATATACCATTAAACTTCGTTTTTATTCGGAGTCACCTAGTGCAG” was tested. Which binding signal did it give?
Its binding signal is 8220 fluorescence intensity (a.u.).

With “CCCCTGTCCTGAGCTATTATTCGCAACCATTGACTAATTTCGGAGTCACCTAGTGCAG” as the sequence, how does the binding signal read?
The binding signal was 9590 fluorescence intensity (a.u.).
